For the assay, the system named is Salmonella enterica serovar Typhimurium SL1344. The assay can be described thus: bacterial growth OD600 after 18 h with compound and polymyxin B; higher = more bacterial growth (less inhibition). The following applies: 50 µM, Mueller-Hinton broth.

The other results are listed elsewhere or left out. These are raw signals, not scaled to a control.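 First-pass screen: polymyxin B was added at a level that permeabilizes the Salmonella outer membrane while sparing the inner membrane. DMSO wells, with and without polymyxin B, defined maximum growth. Because plates differed from one another, each plate's data were ranked separately and the compounds with the lowest OD600 were carried forward as hits.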

On to `O=C(CC1(c2cccc(F)c2)CC(=O)N(C2CCCC2)C1=O)N1CCN(C2CCCC2)C(=O)C1` (stereo unspecified), for which, for the setting “polymyxin B 0.75 µg/mL”, the “bacterial growth OD600” value came out at 0.58.

Take `O=C(CSc1ccccn1)NC1CCCc2nc(-c3cccnc3)ncc21` (stereo unspecified): for the setting “polymyxin B 1 µg/mL”, the “bacterial growth OD600” value was 0.841.

Consider `c1csc(-c2noc(CN3CCC(c4nc5ccccc5o4)CC3)n2)c1`, for which the “bacterial growth OD600” value (polymyxin B 1 µg/mL) was 0.776.

In the case of `CN(CCc1ccccn1)C(=O)c1cc(COc2cccc3cnccc23)on1`, the “bacterial growth OD600” value (polymyxin B 1 µg/mL) was determined as 1.

`COc1ccc(C(=O)NC2CC2)c(OC2CCN(CC3CC=CCC3)CC2)c1` (stereo unspecified): where the note is “polymyxin B 0.75 µg/mL”, the “bacterial growth OD600” value stood at 0.837.

Consider `O=C(NCCCN1CCOCC1)c1cnn(-c2ncc3c(n2)-c2ccccc2CCC3)c1C1CC1`, for which the “bacterial growth OD600” value (polymyxin B 0.75 µg/mL) amounted to 0.833.

Regarding `C=C(C)CNC(=O)C1CCN(C2CCN(Cc3cccc(C)n3)CC2)CC1`, the “bacterial growth OD600” value (polymyxin B 0.75 µg/mL) came to 0.813.

In the case of `CCOc1ccc(CN2CCCC(CCC(=O)Nc3ccccc3F)C2)cc1CO` (stereo unspecified), the “bacterial growth OD600” value (polymyxin B 1 µg/mL) came out at 0.938.

In the case of `COc1cccc(C(=O)NCC2CCCN(CCCn3cccn3)C2)c1OC` (stereo unspecified), the “bacterial growth OD600” value (polymyxin B 1 µg/mL) was 1.02.

As for `Cc1nn(C)cc1CN1CCC(c2cccc(F)c2)Sc2ccccc21` (stereo unspecified), for the setting “polymyxin B 0.75 µg/mL”, the “bacterial growth OD600” value is 0.018.

Consider `CC(C)CCN1CCNC(=O)C1CC(=O)NCCCn1cccn1` (stereo unspecified), for which the “bacterial growth OD600” value (polymyxin B 1 µg/mL) is 0.92.

Turning to `CCN(CC)C1CCN(C(=O)c2ccc3nc(Cc4cccc(Cl)c4)oc3c2)C1` (stereo unspecified), the “bacterial growth OD600” value (polymyxin B 0.75 µg/mL) is 0.688.

As to `COc1cccc(CC2(CCC(=O)NCc3cccc(C(F)(F)F)c3)CCC(=O)N2)c1` (stereo unspecified), the “bacterial growth OD600” value (polymyxin B 0.75 µg/mL) was 0.841.

Take `O=C(CCC1CCN(C(=O)CCc2cn[nH]c2)CC1)NCc1cccc(Cl)c1`: the “bacterial growth OD600” value (polymyxin B 0.75 µg/mL) was determined as 0.765.

`CC(CC1CC1)N1CCC(N2CCC(C(=O)NCc3cccnc3)CC2)CC1` (stereo unspecified): the “bacterial growth OD600” value (polymyxin B 1 µg/mL) was 0.834.

`Cc1c[nH]c(CN(C)C(=O)c2cc(Cn3c(C)nc4ccccc43)on2)n1`: the “bacterial growth OD600” value (polymyxin B 1 µg/mL) was 1.05.

With `CCC1CN(Cc2c(OC)cccc2OC)Cc2cc(OC)ccc2O1` (stereo unspecified), under “polymyxin B 0.75 µg/mL”, the “bacterial growth OD600” value worked out at 0.789.

With `CSc1cccc(CN2CCC(n3nccc3NC(=O)C3CC3)CC2)c1`, the “bacterial growth OD600” value (polymyxin B 1 µg/mL) was 0.909.

Turning to `C=CCC(O)(CC=C)CNC1CCN(c2ccc(CC(=O)NCc3ccccc3)cc2)CC1`, the “bacterial growth OD600” value (polymyxin B 0.75 µg/mL) came to 0.834.

Turning to `Cc1cc(CNCC2(O)CCCN(Cc3ccc(F)c(F)c3)C2=O)no1` (stereo unspecified), where the note is “polymyxin B 1 µg/mL”, the “bacterial growth OD600” value came out at 1.

Take `Cc1ccccc1C(CC(=O)NCc1ccccn1)c1ccccc1` (stereo unspecified): under “polymyxin B 1 µg/mL”, the “bacterial growth OD600” value was determined as 0.743.

Consider `COc1ccc(-c2ccc3c(c2)CC(CNC(=O)c2cccc(-n4nc(C)cc4C)c2)O3)nn1` (stereo unspecified), for which the “bacterial growth OD600” value (polymyxin B 0.75 µg/mL) was determined as 0.819.

For `COc1ccc(C(=O)NC(C)c2ccc(Cl)cc2)cc1OC1CCN(C(C)=O)CC1` (stereo unspecified), for the setting “polymyxin B 1 µg/mL”, the “bacterial growth OD600” value is 1.1.

As to `CCC1CN(CCC(=O)NCCC2COc3ccccc3O2)Cc2cc(OC)ccc2O1` (stereo unspecified), the “bacterial growth OD600” value (polymyxin B 0.75 µg/mL) came out at 0.802.

For the molecule `CSc1ccccc1C(=O)NCc1c(C)ncc2c1CCN(C(=O)c1ccccc1-n1cccn1)C2`, the “bacterial growth OD600” value (polymyxin B 0.75 µg/mL) turned out to be 0.783.

For the molecule `CC(=O)N1CCCN(C(=O)c2cc(Cn3c(C)nc4ccccc43)[nH]n2)CC1`, the “bacterial growth OD600” value (polymyxin B 1 µg/mL) came out at 0.956.

As for `Cc1c(-c2ccccc2F)[nH]c2ccc(CNC(=O)C3CCC(=O)N3)cc12` (stereo unspecified), the “bacterial growth OD600” value (polymyxin B 1 µg/mL) worked out at 0.768.

Consider `COc1cccc(-c2nc3ccc(C(=O)NC(C)c4cn(C)nc4C)cc3o2)c1` (stereo unspecified), for which the “bacterial growth OD600” value (polymyxin B 1 µg/mL) is 0.873.

Regarding `O=C(c1ccc(N2CCC(NCC3(N4CCOCC4)CCCCC3)CC2)cc1)N1CCCC(O)C1` (stereo unspecified), under “polymyxin B 0.75 µg/mL”, the “bacterial growth OD600” value turned out to be 0.727.

`c1ccc(Cc2noc(-c3ccc(N4CCN(CC5CC5)CC4)nc3)n2)cc1`: under “polymyxin B 0.75 µg/mL”, the “bacterial growth OD600” value amounted to 0.849.

Turning to `COc1cccc(CCC(=O)N2CCCC(Nc3ccc(F)cc3)C2)c1` (stereo unspecified), the “bacterial growth OD600” value (polymyxin B 1 µg/mL) came to 1.25.

The values are drawn from the supplement of paper PMC12889115.
